Binding data for one molecule are collected here from patent US20160368979A1.

Protein sequences, listed by entry. Tags and fused reporters are not part of them. Residues count along the entry.
UniProt P02769, residues 25-607: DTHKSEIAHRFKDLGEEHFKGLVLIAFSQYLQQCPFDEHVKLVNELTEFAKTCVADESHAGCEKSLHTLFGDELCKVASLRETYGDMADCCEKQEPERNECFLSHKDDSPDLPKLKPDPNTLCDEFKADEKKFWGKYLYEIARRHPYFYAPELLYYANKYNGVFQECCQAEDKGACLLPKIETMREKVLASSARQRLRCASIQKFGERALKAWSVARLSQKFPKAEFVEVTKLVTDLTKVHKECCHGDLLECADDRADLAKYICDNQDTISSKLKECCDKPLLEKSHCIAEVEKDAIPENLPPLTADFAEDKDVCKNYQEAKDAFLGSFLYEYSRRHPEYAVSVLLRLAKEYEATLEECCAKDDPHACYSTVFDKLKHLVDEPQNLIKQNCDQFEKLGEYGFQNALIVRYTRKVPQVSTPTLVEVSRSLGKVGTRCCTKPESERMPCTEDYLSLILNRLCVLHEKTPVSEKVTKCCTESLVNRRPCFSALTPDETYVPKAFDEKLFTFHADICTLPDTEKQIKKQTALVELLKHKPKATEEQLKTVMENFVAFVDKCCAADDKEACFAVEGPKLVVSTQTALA

Results are given in words; binding and its absence hold for the method and conditions named.

This experiment has as its target BSA (bovine) (UniProt P02769). Briefly: condition: 5 µg hCM101 (no amount on the sheet); ELISA on coated antigen, O.D reading. A general note: An ELISA detects its analyte on a solid surface through an enzyme-linked reagent.

B1: hCM101 (fully humanized anti-eotaxin-2 monoclonal antibody, humanized variant VH1/VK3) (antibody, human IgG1, V domains shown)
VH: QIQLVQSGPELKKPGASVKVSCRASGYPFTNSGMNWVKQAPGKGLKWMGWINTYNGEPTYTDDFKGRFAFSLETSASTAYLQINNLRNEDTATYFCASHSYGSSYAMDNWGQGTSVTVSS
VL: DIVLTQSPDSLAVSLGERATINCKASQSVDYDGDSYMNWYQQKPGQPPKLLIYVASNLKSGIPARFSGSGSGTDFTLTISSLQPEDFATYYCQQSNEEPWTFGGGTKVEIK
Turning to B1, the binding entry is on record as “no binding”.
